No constants are given. Whether binding was seen depends on the method and setting. In cells and extracts the contact can be indirect. Some results given as binding are weak or reduced against the parent protein; the word gives no strength. For some of these results: Sequences can lack the tags named with a protein.

Protein sequences, listed by entry. Tags and fused reporters are not part of them. Lines headed by an entry give the natural chain unless they say otherwise; changes in a name come on top.
UniProt Q17RN3, whole entry: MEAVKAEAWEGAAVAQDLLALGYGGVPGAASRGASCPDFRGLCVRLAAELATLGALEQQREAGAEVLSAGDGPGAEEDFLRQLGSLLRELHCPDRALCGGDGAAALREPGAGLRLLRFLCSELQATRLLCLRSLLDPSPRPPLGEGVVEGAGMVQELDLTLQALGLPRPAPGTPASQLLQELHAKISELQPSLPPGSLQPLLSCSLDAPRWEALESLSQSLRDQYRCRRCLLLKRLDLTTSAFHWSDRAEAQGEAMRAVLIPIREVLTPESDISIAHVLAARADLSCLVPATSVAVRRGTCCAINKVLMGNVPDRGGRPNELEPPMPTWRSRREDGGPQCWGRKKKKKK

First the molecules themselves.
T1: FLAG-HA-RTCB (human) (UniProt Q9Y3I0)
T1 sequence: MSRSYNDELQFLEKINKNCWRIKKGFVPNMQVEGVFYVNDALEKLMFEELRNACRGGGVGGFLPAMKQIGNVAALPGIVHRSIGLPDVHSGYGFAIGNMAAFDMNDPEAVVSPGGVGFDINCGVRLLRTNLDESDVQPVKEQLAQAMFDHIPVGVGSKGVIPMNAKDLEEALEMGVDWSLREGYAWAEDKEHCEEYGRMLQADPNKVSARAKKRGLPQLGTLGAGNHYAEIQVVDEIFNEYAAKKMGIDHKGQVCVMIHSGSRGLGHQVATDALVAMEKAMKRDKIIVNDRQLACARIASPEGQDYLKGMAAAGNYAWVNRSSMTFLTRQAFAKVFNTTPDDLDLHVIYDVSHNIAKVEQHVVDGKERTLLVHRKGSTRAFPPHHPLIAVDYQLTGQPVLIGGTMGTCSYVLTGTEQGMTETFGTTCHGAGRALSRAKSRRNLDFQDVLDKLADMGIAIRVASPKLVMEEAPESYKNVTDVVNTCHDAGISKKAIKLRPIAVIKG

B1: DDX1 (enzyme, UniProt Q92499 1-740)
chain: MAAFSEMGVMPEIAQAVEEMDWLLPTDIQAESIPLILGGGDVLMAAETGSGKTGAFSIPVIQIVYETLKDQQEGKKGKTTIKTGASVLNKWQMNPYDRGSAFAIGSDGLCCQSREVKEWHGCRATKGLMKGKHYYEVSCHDQGLCRVGWSTMQASLDLGTDKFGFGFGGTGKKSHNKQFDNYGEEFTMHDTIGCYLDIDKGHVKFSKNGKDLGLAFEIPPHMKNQALFPACVLKNAELKFNFGEEEFKFPPKDGFVALSKAPDGYIVKSQHSGNAQVTQTKFLPNAPKALIVEPSRELAEQTLNNIKQFKKYIDNPKLRELLIIGGVAARDQLSVLENGVDIVVGTPGRLDDLVSTGKLNLSQVRFLVLDEADGLLSQGYSDFINRMHNQIPQVTSDGKRLQVIVCSATLHSFDVKKLSEKIMHFPTWVDLKGEDSVPDTVHHVVVPVNPKTDRLWERLGKSHIRTDDVHAKDNTRPGANSPEMWSEAIKILKGEYAVRAIKEHKMDQAIIFCRTKIDCDNLEQYFIQQGGGPDKKGHQFSCVCLHGDRKPHERKQNLERFKKGDVRFLICTDVAARGIDIHGVPYVINVTLPDEKQNYVHRIGRVGRAERMGLAISLVATEKEKVWYHVCSSRGKGCYNTRLKEDGGCTIWYNEMQLLSEIEEHLNCTISQVEPDIKVPVDEFDGKVTYGQKRAAGGGSYKGHVDILAPTVQELAALEKEAQTSFLHLGYLPNQLFRTF
B2: RTCB (enzyme, UniProt Q9Y3I0 1-505)
chain: T1 sequence
B3: Ashwin (protein, UniProt Q9BVC5 1-232)
chain: MAGDVGGRSCTDSELLLHPELLSQEFLLLTLEQKNIAVETDVRVNKDSLTDLYVQHAIPLPQRDLPKNRWGKMMEKKREQHEIKNETKRSSTVDGLRKRPLIVFDGSSTSTSIKVKKTENGDNDRLKPPPQASFTSNAFRKLSNSSSSVSPLILSSNLPVNNKTEHNNNDAKQNHDLTHRKSPSGPVKSPPLSPVGTTPVKLKRAAPKEEAEAMNNLKPPQAKRKIQHVTWP
B4: CGI-99 (protein, UniProt Q9Y224 1-244)
chain: MFRRKLTALDYHNPAGFNCKDETEFRNFIVWLEDQKIRHYKIEDRGNLRNIHSSDWPKFFEKYLRDVNCPFKIQDRQEAIDWLLGLAVRLEYGDNAEKYKDLVPDNSKTADNATKNAEPLINLDVNNPDFKAGVMALANLLQIQRHDDYLVMLKAIRILVQERLTQDAVAKANQTKEGLPVALDKHILGFDTGDAVLNEAAQILRLLHIEELRELQTKINEAIVAVQAIIADPKTDHRLGKVGR

In the first test the target is C-terminally FLAG-HA-tagged FAM98A(Δ336-518) (human) (UniProt Q8NCA5). Kind of test: co-IP.
Regarding B1, the binding entry is recorded as “binds”.

For the molecule B2, the binding result is given as “binds”.

As to B3, the binding entry is “no binding”.

In the case of B4, the binding result was “binds”.

A further test addresses C-terminally FLAG-HA-tagged FAM98C (human) (UniProt Q17RN3). Kind of test: co-IP.
As to B1, the binding result is “binds”.

B2: the binding entry is recorded as “binds”.

As to B3, the binding entry is reported as “no binding”.

Consider B4, for which the binding result is “binds”.

The target in a further test is T1, FLAG-HA-RTCB (human). As to the kind of experiment: co-IP.
In the case of FAM98C (from UniProt Q17RN3 1-349), the binding result is given as “binds”.

For FAM98A (from UniProt Q8NCA5 1-518), the binding entry was “binds”.

The target of the next test is N-terminally FLAG-HA-tagged FAM98A(Δ336-518) (human) (UniProt Q8NCA5). Kind of test: co-IP.
B1: the binding result was “binds”.

On to B2, for which the binding result is “binds”.

Consider B3, for which the binding entry is on record as “no binding”.

B4: the binding entry is given as “binds”.

For another test, the target named is N-terminally FLAG-HA-tagged, full-length FAM98A (human) (UniProt Q8NCA5). Kind of test: co-IP.
For B1, the binding result was “binds”.

For B2, the binding result is on record as “binds”.

With B3, the binding entry is “no binding”.

Take B4: the binding entry is listed as “binds”.

The target in the next test is N-terminally FLAG-HA-tagged, full-length FAM98C (human) (UniProt Q17RN3). Kind of test: co-IP.
As to B1, the binding result is given as “binds”.

Take B2: the binding result is recorded as “binds”.

B3: the binding entry is on record as “no binding”.

As for B4, the binding entry is recorded as “binds”.

The values above are taken from article doi:10.1101/2025.08.01.668163.
